Data from publication PMC8991007, “Benzylic Dehydroxylation of Echinocandin Antifungal Drugs Restores Efficacy against Resistance Conferred by Mutated Glucan Synthase” (Journal of the American Chemical Society, 2022).

System: panel of 50 strains of C. albicans and C. glabrata
Test: MIC comparison of dehydroxy derivative versus parent across the strain panel
Format: cell-based

| Structure (SMILES) | share of echinocandin-resistant strains against which derivative is 2-fold better than parent (1 vs ANF) [%] | share of echinocandin-resistant strains against which derivative is 4-fold more potent than parent (1 vs ANF) [%] | share of echinocandin-resistant strains against which activity is similar to that of parent (1 vs ANF, 2 vs RZF) [%] | share of echinocandin-resistant strains against which derivative is 8-fold more potent than parent (1 vs ANF, 2 vs RZF) [%] | share of echinocandin-resistant strains against which derivative is 16-fold more potent than parent (1 vs ANF, 2 vs RZF) [%] | share of strains in the entire tested panel against which antifungal activity is improved relative to parent (1 vs ANF, 2 vs RZF) [%] | share of echinocandin-resistant strains against which derivative is 2- to 4-fold more potent than parent (2 vs RZF) [%] |
| --- | --- | --- | --- | --- | --- | --- | --- |
| CCCCCOc1ccc(-c2ccc(-c3ccc(C(=O)N[C@H]4C[C@@H](O)[C@@H](O)NC(=O)[C@@H]5[C@@H](O)[C@@H](C)CN5C(=O)[C@H]([C@@H](C)O)NC(=O)[C@H]([C@H](O)Cc5ccc(O)cc5)NC(=O)[C@@H]5C[C@@H](O)CN5C(=O)[C@H]([C@@H](C)O)NC4=O)cc3)cc2)cc1 [Compound 1, dehydroxy-ANF] ({pTerphenylCO(4''-OnC5H11)}-[Orn(4R-OH,5R-OH)]T[Hyp][hTyr(3R-OH)]T[Pro(3S-OH,4S-Me)]; lactam 1-C) | 21 | 26 | 37 | 8 | 8 | 68 |  |
| CCCCCOc1ccc(-c2ccc(-c3ccc(C(=O)N[C@H]4C[C@@H](O)[C@@H](OCC[N+](C)(C)C)NC(=O)[C@@H]5[C@@H](O)[C@@H](C)CN5C(=O)[C@H]([C@@H](C)O)NC(=O)[C@H]([C@H](O)Cc5ccc(O)cc5)NC(=O)[C@@H]5C[C@@H](O)CN5C(=O)[C@H]([C@@H](C)O)NC4=O)cc3)cc2)cc1 [Compound 2, dehydroxy-RZF] ({pTerphenylCO(4''-OnC5H11)}-[Orn(4R-OH,5R-OCH2CH2NMe3+)]T[Hyp][hTyr(3R-OH)]T[Pro(3S-OH,4S-Me)]; lactam 1-C) |  |  | 29 | 21 | 21 | 72 | 29 |

*1 amine or outer side, *2 acyl side, *3 side chain or, on linkers, in order; H or OH if unused. Where a SMILES comes first, the peptide text is derived from it. Bridges are numbered along the chain shown (N, C = ends). [ ]: non-standard residue; d: D form. The star is where a group is joined. Orn(4R-OH,5R-OCH2CH2NMe3+) = C[N+](C)(C)CCO[C@@H](N[*:3])[C@H](O)C[C@H](N[*:1])C(=O)[*:2]; pTerphenylCO(4''-OnC5H11) = CCCCCOc1ccc(-c2ccc(-c3ccc(C(=O)*)cc3)cc2)cc1; Orn(4R-OH,5R-OH) = O=C([C@H](C[C@@H](O)[C@@H](O)N[*:3])N[*:1])[*:2]; Pro(3S-OH,4S-Me) = C[C@H]1CN[C@H](C(=O)O)[C@H]1O; hTyr(3R-OH) = N[C@H](C(=O)O)[C@H](O)Cc1ccc(O)cc1; Hyp = O=C(O)[C@@H]1C[C@@H](O)CN1
